According to US20240358711A1, “COMPOUNDS FOR NEUTROPHIL ROS INHIBITION” (IMMUNYX PHARMA LTD., priority 2021, published 2024):

Key:
human neutrophils = test: ROS production by PMA-stimulated purified human neutrophils; format: cell-based; settings: Neutrophil, average of several experiments, read-out: ROS Inhibition IC50
Method: Following blood withdrawal, blood was overlaid on 3% dextran in 0.9% NaCl in a 1:1 ratio and left at RT for 25 min to allow erythrocyte sedimentation. Residual RBCs were lysed by adding water for 30 sec and stopped by adding 2.5% BSA/5×PBS. WBCs were then diluted in 0.5% BSA/1×PBS and total number of cells was counted. Purification of pure neutrophils (HDNs) was done by overlaying blood after RBC sedimentation in a 1:1 ratio on Histopaque-1077. After 30 min centrifugation at 400 g, pure neutrophils were found at the bottom of the tube (pellet). Mononuclear cells (LDF—low density fraction) settle between the Histopaque-1077 and the 0.9% saline.
A high-throughput screen was performed to find molecules that inhibit ROS production by neutrophils. Extracted human neutrophils were purified and kept in culture. The cells were then exposed to various drugs and ROS production was monitored over time. Compounds that also scavenged hydrogen peroxide (H2O2) and/or lowered neutrophil ATP levels (reflecting toxicity) were removed. The top hits from the screen were selected for further analysis. […]
Bosutinib, Stelazine, Clomipramine, Abemaciclib, Afatanib and Dyclonine were selected for further characterization. […] PMA was again used to stimulate ROS production in neutrophils and the effects of the drugs were monitored at increasing concentration levels. […]

mouse neutrophils = test: ROS inhibition in mouse neutrophils; format: cell-based; settings: Neutrophil, average of several experiments
Source text: Bosutinib, Stelazine, Clomipramine, Abemaciclib, Afatanib and Dyclonine were selected for further characterization. […] PMA was again used to stimulate ROS production in neutrophils and the effects of the drugs were monitored at increasing concentration levels. […] The molecules were all also effective in mouse neutrophils although to a generally lesser extent (FIG. 2B and Table 2).

In the case of `CN(C)CCCN1c2ccccc2CCc2ccc(Cl)cc21` [Clomipramine], the IC50 (human neutrophils) is reported as 1000 nM and the IC50 (mouse neutrophils) is reported as 3500 nM.
